Measured data: PubChem BioAssay AID1259425 (University of Nebraska Medical Center, 2018)

- Screen: 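Find knockdowns that reproduce the gene expression pattern seen when KSR1 is lost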 (primary screen)
- System: HCT116 human colon cancer cells
- Knock-down reagent: siRNA pool against human genes, 50 nM siRNA
- Read-out: 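After 50 nM siRNA pool, branched-DNA assay measures six marker transcripts per well, minus blank, normalised to the geometric mean of two housekeeping transcripts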
- Reading the numbers: BNIP3L mRNA: higher = more BNIP3L transcript after knockdown; NDRG1 mRNA: higher = more NDRG1 transcript after knockdown
Shown is one part, drawn at random, of about 14,000 reagents tested. Not all columns of the deposit are shown. No sequences are given here. Not stated in the record: the time to read-out.

TBPL1 | BNIP3L mRNA, set 1 = 0.0624; NDRG1 mRNA, set 1 = 0.071
KLF16 | BNIP3L mRNA, set 1 = 0.0602; NDRG1 mRNA, set 1 = -0.0131
GABRA2 | BNIP3L mRNA, set 1 = 0.0319; NDRG1 mRNA, set 1 = 0.158
NUDT1 | BNIP3L mRNA, set 1 = 0.187; NDRG1 mRNA, set 1 = 0.22
GOT2 | BNIP3L mRNA, set 1 = 0.217; NDRG1 mRNA, set 1 = 0.665
FAIM | BNIP3L mRNA, set 1 = 0.155; NDRG1 mRNA, set 1 = 0.134
KLF3 | BNIP3L mRNA, set 1 = 0.121; NDRG1 mRNA, set 1 = 0.15
MATN3 | BNIP3L mRNA, set 1 = 0.0748; NDRG1 mRNA, set 1 = 0.167
PKD1L1-AS1 | BNIP3L mRNA, set 1 = 0.0734; NDRG1 mRNA, set 1 = 0.187
ATG5 | BNIP3L mRNA, set 1 = 0.0972; NDRG1 mRNA, set 1 = 0.177
GBGT1 | BNIP3L mRNA, set 1 = 0.0686; NDRG1 mRNA, set 1 = 0.116
KRIT1 | BNIP3L mRNA, set 1 = 0.0596; NDRG1 mRNA, set 1 = 0.0782
CTDSPL2 | BNIP3L mRNA, set 1 = 0.107; NDRG1 mRNA, set 1 = 0.144
TRPM4 | BNIP3L mRNA, set 1 = 0.0628; NDRG1 mRNA, set 1 = 0.0782
CTSW | BNIP3L mRNA, set 1 = 0.0273; NDRG1 mRNA, set 1 = 0.0913
TFF3 | BNIP3L mRNA, set 1 = 0.0781; NDRG1 mRNA, set 1 = 0.156
LALBA | BNIP3L mRNA, set 1 = 0.0975; NDRG1 mRNA, set 1 = 0.0843
TIGD5 | BNIP3L mRNA, set 1 = 0.0814; NDRG1 mRNA, set 1 = 0.175
TEAD2 | BNIP3L mRNA, set 1 = 0.111; NDRG1 mRNA, set 1 = 0.246
FLNC | BNIP3L mRNA, set 1 = 0.114; NDRG1 mRNA, set 1 = 0.207
PSMB10 | BNIP3L mRNA, set 1 = 0.122; NDRG1 mRNA, set 1 = 0.123
RPL35A | BNIP3L mRNA, set 1 = 0.379; NDRG1 mRNA, set 1 = 0.764
CYP11A1 | BNIP3L mRNA, set 1 = 0.0786; NDRG1 mRNA, set 1 = 0.235
SLC9A5 | BNIP3L mRNA, set 1 = 0.0673; NDRG1 mRNA, set 1 = 0.277
NMRK2 | BNIP3L mRNA, set 1 = 0.178; NDRG1 mRNA, set 1 = 0.387
IL21R | BNIP3L mRNA, set 1 = 0.0782; NDRG1 mRNA, set 1 = 0.097
GPR161 | BNIP3L mRNA, set 1 = 0.192; NDRG1 mRNA, set 1 = 0.142
CCL5 | BNIP3L mRNA, set 1 = 0.0942; NDRG1 mRNA, set 1 = 0.282

3 entries from above, sorted by “NDRG1 mRNA, set 1”, lowest first:
TRPM4 | BNIP3L mRNA, set 1 = 0.0628; NDRG1 mRNA, set 1 = 0.0782
CTSW | BNIP3L mRNA, set 1 = 0.0273; NDRG1 mRNA, set 1 = 0.0913
CTDSPL2 | BNIP3L mRNA, set 1 = 0.107; NDRG1 mRNA, set 1 = 0.144
